Measurements published in the supplement of paper PMC10849652.
This is one part of the list.

Sequences of proteins named here, by UniProt entry; tags and fusion partners are left off. A change or cut given only in a name is not applied to a line headed by its entry.
UniProt Q13523: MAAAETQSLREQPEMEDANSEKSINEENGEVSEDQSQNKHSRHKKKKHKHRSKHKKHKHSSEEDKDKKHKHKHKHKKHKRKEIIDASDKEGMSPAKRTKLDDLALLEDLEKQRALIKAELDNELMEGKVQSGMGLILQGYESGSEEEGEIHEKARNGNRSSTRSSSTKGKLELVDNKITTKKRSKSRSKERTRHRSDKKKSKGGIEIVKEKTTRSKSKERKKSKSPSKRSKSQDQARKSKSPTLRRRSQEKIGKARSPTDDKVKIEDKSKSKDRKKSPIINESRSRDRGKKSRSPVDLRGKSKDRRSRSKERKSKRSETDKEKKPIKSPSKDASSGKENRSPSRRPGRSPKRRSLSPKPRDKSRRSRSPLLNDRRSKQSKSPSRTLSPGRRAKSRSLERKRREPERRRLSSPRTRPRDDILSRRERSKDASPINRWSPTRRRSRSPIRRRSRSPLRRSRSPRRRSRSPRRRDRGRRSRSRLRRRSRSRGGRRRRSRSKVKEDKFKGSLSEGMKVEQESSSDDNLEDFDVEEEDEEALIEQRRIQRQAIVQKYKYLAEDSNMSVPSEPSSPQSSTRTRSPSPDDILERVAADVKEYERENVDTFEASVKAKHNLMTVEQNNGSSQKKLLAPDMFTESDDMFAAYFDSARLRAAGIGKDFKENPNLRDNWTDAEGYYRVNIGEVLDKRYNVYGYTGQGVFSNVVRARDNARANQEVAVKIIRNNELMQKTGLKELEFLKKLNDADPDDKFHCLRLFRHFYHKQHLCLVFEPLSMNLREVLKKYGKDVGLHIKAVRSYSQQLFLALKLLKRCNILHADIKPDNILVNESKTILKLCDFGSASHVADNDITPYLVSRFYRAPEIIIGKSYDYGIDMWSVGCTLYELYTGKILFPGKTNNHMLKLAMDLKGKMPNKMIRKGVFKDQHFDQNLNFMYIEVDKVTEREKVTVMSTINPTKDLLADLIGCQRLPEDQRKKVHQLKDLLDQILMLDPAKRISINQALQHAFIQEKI
UniProt P50336: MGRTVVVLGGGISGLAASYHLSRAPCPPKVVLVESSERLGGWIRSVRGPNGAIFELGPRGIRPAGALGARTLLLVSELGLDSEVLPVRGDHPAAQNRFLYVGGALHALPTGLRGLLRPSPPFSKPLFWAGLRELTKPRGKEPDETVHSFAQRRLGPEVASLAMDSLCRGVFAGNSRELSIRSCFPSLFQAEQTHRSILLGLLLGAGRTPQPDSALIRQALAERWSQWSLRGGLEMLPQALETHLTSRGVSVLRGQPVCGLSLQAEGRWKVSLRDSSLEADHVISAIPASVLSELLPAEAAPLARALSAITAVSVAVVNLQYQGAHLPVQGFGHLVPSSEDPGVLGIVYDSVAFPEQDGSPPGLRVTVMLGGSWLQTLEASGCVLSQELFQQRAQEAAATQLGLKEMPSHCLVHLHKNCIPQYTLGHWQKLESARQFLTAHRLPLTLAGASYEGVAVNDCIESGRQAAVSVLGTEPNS
UniProt P49643: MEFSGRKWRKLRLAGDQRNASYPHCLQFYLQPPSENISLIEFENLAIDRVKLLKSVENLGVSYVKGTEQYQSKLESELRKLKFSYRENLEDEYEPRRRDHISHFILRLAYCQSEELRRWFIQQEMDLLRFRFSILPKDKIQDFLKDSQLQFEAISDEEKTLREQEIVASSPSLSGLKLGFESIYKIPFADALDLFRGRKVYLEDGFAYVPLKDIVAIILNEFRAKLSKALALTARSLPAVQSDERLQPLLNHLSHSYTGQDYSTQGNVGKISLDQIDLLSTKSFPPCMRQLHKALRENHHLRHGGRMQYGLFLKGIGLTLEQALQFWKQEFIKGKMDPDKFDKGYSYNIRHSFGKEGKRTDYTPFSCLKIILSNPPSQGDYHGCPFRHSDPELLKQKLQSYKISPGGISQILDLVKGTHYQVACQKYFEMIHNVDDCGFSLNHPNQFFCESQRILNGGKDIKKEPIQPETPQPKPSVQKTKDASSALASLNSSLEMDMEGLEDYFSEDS
UniProt P79522: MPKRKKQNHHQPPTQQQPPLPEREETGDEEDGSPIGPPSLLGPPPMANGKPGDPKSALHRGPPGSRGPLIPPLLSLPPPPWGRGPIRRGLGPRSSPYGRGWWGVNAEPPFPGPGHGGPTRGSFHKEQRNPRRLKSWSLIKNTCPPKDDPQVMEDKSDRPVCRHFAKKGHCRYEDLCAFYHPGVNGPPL
UniProt Q13362, whole entry, looked up: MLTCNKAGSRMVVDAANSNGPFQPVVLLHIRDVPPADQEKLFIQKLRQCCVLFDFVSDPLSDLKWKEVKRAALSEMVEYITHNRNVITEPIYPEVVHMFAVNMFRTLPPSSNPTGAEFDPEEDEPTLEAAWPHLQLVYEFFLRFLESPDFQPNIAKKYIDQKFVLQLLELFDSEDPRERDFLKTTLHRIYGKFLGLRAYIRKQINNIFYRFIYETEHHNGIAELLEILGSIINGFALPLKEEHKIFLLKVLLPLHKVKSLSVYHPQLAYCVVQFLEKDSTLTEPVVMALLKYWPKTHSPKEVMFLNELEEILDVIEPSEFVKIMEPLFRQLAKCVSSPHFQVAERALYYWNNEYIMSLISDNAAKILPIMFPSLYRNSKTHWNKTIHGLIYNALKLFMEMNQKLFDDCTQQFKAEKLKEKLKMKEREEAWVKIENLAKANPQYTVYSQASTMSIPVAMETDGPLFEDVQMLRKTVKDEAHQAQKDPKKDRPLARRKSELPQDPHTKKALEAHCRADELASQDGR
UniProt O43395: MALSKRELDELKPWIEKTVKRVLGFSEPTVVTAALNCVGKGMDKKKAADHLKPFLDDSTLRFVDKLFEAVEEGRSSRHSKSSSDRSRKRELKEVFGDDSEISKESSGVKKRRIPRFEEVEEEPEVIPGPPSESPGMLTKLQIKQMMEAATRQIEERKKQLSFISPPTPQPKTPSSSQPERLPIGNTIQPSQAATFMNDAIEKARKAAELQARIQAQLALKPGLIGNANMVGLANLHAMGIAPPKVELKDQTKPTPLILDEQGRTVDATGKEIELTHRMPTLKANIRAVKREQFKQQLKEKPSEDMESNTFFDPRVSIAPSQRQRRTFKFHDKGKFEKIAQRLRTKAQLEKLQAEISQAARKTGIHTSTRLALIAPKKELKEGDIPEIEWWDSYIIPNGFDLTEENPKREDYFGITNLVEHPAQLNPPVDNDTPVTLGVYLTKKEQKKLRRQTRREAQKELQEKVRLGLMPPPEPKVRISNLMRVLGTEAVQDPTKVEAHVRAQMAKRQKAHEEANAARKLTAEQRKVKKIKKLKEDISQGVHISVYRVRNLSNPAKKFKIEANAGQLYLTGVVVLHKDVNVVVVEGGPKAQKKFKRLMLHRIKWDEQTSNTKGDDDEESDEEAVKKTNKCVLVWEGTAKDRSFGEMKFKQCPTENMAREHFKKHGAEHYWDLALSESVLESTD
UniProt P54619: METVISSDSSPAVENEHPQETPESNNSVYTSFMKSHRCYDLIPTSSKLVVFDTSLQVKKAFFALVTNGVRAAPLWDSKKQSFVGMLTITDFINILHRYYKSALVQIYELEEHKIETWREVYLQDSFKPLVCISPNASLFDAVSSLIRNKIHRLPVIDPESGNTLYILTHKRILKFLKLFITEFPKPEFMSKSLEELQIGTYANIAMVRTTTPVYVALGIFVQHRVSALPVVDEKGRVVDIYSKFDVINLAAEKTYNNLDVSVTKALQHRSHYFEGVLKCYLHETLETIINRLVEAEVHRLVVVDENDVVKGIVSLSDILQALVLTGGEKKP
UniProt P51817: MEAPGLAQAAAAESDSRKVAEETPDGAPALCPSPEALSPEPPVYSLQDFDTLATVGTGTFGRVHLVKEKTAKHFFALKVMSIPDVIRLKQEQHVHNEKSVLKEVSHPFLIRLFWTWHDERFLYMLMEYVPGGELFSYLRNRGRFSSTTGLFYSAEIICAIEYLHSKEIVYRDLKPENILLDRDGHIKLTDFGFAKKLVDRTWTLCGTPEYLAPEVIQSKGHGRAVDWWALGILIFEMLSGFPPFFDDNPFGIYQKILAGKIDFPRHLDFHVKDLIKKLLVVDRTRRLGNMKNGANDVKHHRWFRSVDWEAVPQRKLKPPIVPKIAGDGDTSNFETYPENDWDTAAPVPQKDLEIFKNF
UniProt P13727: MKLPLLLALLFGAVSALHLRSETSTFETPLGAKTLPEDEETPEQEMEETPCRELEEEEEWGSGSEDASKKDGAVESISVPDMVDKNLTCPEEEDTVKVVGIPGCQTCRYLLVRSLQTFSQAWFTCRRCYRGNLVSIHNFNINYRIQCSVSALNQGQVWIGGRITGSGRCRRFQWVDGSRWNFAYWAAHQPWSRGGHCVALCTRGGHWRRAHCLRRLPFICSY
UniProt Q8NI37: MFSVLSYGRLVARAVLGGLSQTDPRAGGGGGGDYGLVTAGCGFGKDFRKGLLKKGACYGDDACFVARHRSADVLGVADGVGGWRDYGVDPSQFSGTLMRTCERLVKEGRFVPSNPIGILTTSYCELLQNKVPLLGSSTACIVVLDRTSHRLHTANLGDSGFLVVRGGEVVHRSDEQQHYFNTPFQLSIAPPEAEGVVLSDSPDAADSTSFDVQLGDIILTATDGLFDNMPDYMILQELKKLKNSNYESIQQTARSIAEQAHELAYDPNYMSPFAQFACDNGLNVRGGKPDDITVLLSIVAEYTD
UniProt Q15173: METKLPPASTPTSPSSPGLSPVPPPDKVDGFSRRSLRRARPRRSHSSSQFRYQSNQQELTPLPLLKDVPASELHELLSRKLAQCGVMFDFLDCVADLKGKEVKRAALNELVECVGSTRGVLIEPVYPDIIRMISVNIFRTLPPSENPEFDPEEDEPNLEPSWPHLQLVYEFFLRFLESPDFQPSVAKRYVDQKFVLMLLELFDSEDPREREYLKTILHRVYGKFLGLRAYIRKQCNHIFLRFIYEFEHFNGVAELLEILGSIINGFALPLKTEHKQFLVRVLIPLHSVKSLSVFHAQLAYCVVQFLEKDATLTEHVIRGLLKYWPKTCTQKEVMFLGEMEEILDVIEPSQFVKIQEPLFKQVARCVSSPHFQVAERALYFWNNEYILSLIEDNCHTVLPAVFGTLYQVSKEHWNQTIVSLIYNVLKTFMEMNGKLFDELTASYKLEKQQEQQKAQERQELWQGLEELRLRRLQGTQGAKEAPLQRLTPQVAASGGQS
UniProt Q9Y3B1: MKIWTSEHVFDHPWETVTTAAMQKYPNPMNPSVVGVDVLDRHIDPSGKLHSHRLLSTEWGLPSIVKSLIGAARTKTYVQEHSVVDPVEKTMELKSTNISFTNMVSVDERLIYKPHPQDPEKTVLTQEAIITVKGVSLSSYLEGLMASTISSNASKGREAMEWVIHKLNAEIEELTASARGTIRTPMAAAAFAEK

How the values were obtained:
Assay in all cases: log2 fold change, soluble protein after heating vs DMSO (PISA); higher = thermal stabilisation; K562 cells, 10 uM, 30 min; active = over 0.2 and 3.5 SD of the protein, either way, in both replicates (recomputed)
[1] = compound: CS(=O)(=O)c1ccc(-c2cnc(N)c(C(=O)Nc3ccccc3)n2)cc1
How it was run: (§1)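 K562 cells at 2×10^6 cells/mL were treated with 10 μM compound for 30 min. Aliquots were heated for 3 min across 48°C-58°C, pooled, and extracted in PBS with 0.5% NP-40 at 4°C; soluble protein was the supernatant after 21,000xg for 90 min. Soluble protein was quantified by TMTpro 16plex LC-MS/MS with channel sums equalised, and reported as log2 fold change in thermal stability against DMSO controls, with values from duplicates.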

crizotinib = compound: C[C@@H](Oc1cc(-c2cnn(C3CCNCC3)c2)cnc1N)c1c(Cl)ccc(F)c1Cl [crizotinib]
How it was run: as §1

[2] = compound: C[C@@H]1COCCN1C2=NC(=NC(=C2)C3(CC3)S(=O)(=O)C)C4=C5C=CNC5=CC=C4
How it was run: as §1

[3] = compound: C[C@H](C1=CC=C(C=C1)C(=O)NC2=C3C=CNC3=NC=C2)N
How it was run: as §1

gandotinib = compound: Cc1cc(Nc2cc(CN3CCOCC3)c3nc(C)c(Cc4ccc(Cl)cc4F)n3n2)n[nH]1 [gandotinib]
How it was run: as §1

[4] = compound: Cc1cc(SCc2sc(-c3ccc(C(F)(F)F)cc3)nc2C)ccc1OCC(=O)O
How it was run: as §1

doramapimod = compound: Cc1ccc(-n2nc(C(C)(C)C)cc2NC(=O)Nc2ccc(OCCN3CCOCC3)c3ccccc23)cc1 [doramapimod]
How it was run: as §1

ispinesib = compound: Cc1ccc(C(=O)N(CCCN)[C@@H](c2nc3cc(Cl)ccc3c(=O)n2Cc2ccccc2)C(C)C)cc1 [ispinesib]
How it was run: as §1

bafetinib = compound: Cc1ccc(NC(=O)c2ccc(CN3CC[C@H](N(C)C)C3)c(C(F)(F)F)c2)cc1Nc1nccc(-c2cncnc2)n1 [bafetinib]
How it was run: as §1

[5] = compound: Cc1cccc(CC(=O)N2CCc3c2ccc(-c2cn(C)c4ncnc(N)c24)c3F)n1
How it was run: as §1

nilotinib = compound: Cc1cn(-c2cc(NC(=O)c3ccc(C)c(Nc4nccc(-c5cccnc5)n4)c3)cc(C(F)(F)F)c2)cn1 [nilotinib]
How it was run: as §1

[6] = compound: Cc1nc(Nc2n[nH]c3c2CN(C(=O)N[C@H](CN(C)C)c2ccccc2)C3(C)C)c2sccc2n1
How it was run: as §1

dasatinib = compound: Cc1nc(Nc2ncc(C(=O)Nc3c(C)cccc3Cl)s2)cc(N2CCN(CCO)CC2)n1 [dasatinib]
How it was run: as §1

[7] = compound: Cc1ncc(-c2ccnc(Nc3ccc(S(C)(=O)=O)cc3)n2)n1C(C)C
How it was run: as §1

[8] = compound: Cn1cc(-c2ccc3c(c2)CCN3C(=O)Cc2cccc(C(F)(F)F)c2)c2c(N)ncnc21
How it was run: as §1

[9] = compound: Cn1cc(-c2ccc3nnc(C(F)(F)c4ccc5ncccc5c4)n3n2)cn1
How it was run: as §1

tipifarnib = compound: Cn1cncc1[C@@](N)(c1ccc(Cl)cc1)c1ccc2c(c1)c(-c1cccc(Cl)c1)cc(=O)n2C [tipifarnib]
How it was run: as §1

mubritinib = compound: FC(F)(F)c1ccc(/C=C/c2nc(COc3ccc(CCCCn4ccnn4)cc3)co2)cc1 [mubritinib]
How it was run: as §1

tozasertib = compound: Cc1cc(Nc2cc(N3CCN(C)CC3)nc(Sc3ccc(NC(=O)C4CC4)cc3)n2)n[nH]1 [tozasertib]
How it was run: as §1

duvelisib = compound: C[C@H](Nc1ncnc2nc[nH]c12)c1cc2cccc(Cl)c2c(=O)n1-c1ccccc1 [duvelisib]
How it was run: as §1

Target	log2 fold change [1]	log2 fold change (crizotinib)	log2 fold change [2]	log2 fold change [3]	log2 fold change (gandotinib)	log2 fold change [4]	log2 fold change (doramapimod)	log2 fold change (ispinesib)	log2 fold change (bafetinib)	log2 fold change [5]	log2 fold change (nilotinib)	log2 fold change [6]	log2 fold change (dasatinib)	log2 fold change [7]	log2 fold change [8]	log2 fold change [9]	log2 fold change (tipifarnib)	log2 fold change (mubritinib)	log2 fold change (tozasertib)	log2 fold change (duvelisib)
PRPF4B (UniProt Q13523)	inactive: 0.024	inactive: -0.006	inactive: -0.025	inactive: -0.089	inactive: 0.007	inactive: 0.01	inactive: 0.044	inactive: 0.082	inactive: 0.188	inactive: -0.096	inactive: 0.153	active: -0.626	inactive: 0.081	inactive: -0.163	inactive: 0.005	inactive: -0.056	inactive: 0.117	inactive: 0.069		
PPOX (UniProt P50336)	inactive: 0.173	inactive: -0.197	inactive: 0.128	inactive: -0.077	inactive: 0.427	inactive: 0.091	inactive: 0.378	inactive: 0.02	inactive: -0.031	inactive: -0.013	inactive: 0.494	inactive: 0.027	inactive: 0.208	inactive: -0.015	inactive: 0.192	inactive: 0.086	inactive: 0.08	inactive: 0		
PRIM2 (UniProt P49643)	inactive: 0.078	inactive: -0.063	inactive: 0.154	inactive: 0.066	inactive: 0.07	inactive: 0.145	inactive: -0.06	inactive: -0.061	inactive: 0.007	inactive: -0.019	inactive: -0.063	inactive: -0.06	inactive: -0.128	inactive: 0.021	inactive: 0.015	inactive: 0.046	inactive: -0.018	inactive: 0.101		
PRMT7 (UniProt Q9NVM4)	inactive: 0.063	inactive: -0.142	inactive: 0.075	inactive: 0.083	inactive: 0.067	inactive: 0.12	inactive: 0.038	inactive: 0.065	inactive: -0.114	inactive: -0.086	inactive: -0.002	inactive: -0.047	inactive: -0.213	inactive: -0.01	inactive: -0.038	inactive: 0.124	inactive: -0.116	inactive: 0.092		
PRG4 (UniProt Q92954)	inactive: 0.08	inactive: -0.19	inactive: -0.014	inactive: 0.023	inactive: 0.098	inactive: 0.004	inactive: -0.229	inactive: -0.114	inactive: -0.095	inactive: 0.104	inactive: -0.05	inactive: 0.065	inactive: 0	inactive: 0.258	inactive: 0.203	inactive: 0.068		inactive: -0.016		
PRR3 (UniProt P79522)	inactive: 0.033	inactive: -0.019	inactive: -0.06		inactive: 0.1		inactive: 0.056			inactive: -0.259									inactive: -0.059	
PPP2R5C isoform 5 (UniProt Q13362)	inactive: -0.054	inactive: -0.071	inactive: 0.023	inactive: -0.05	inactive: -0.024	inactive: 0.069	inactive: -0.043	inactive: 0.007	inactive: -0.024	inactive: 0.005	inactive: -0.168	inactive: -0.026	inactive: -0.227	inactive: 0.026	inactive: 0.031	inactive: -0.06	inactive: -0.099	inactive: 0.042		
PRPF3 (UniProt O43395)	inactive: 0.009	inactive: -0.025	inactive: 0.114	inactive: 0.193	inactive: -0.067	inactive: 0.174	inactive: -0.024	inactive: 0.025	inactive: 0.048	inactive: 0.072	inactive: -0.044	inactive: -0.201	inactive: -0.114	inactive: -0.152	inactive: -0.149	inactive: 0.018	inactive: -0.011	inactive: 0.118		
PRKCA (UniProt P17252)	inactive: -0.023	inactive: -0.081	inactive: 0.044	inactive: -0.041	inactive: -0.227	inactive: 0.232	inactive: 0.01	inactive: -0.112	inactive: -0.043	inactive: -0.066	inactive: -0.011	inactive: -0.173	inactive: -0.233	inactive: -0.005	inactive: 0.082	inactive: -0.022	inactive: -0.026	inactive: 0.054		
PRKAG1 isoform 3 (UniProt P54619)	inactive: -0.01	inactive: -0.114	inactive: 0.006	inactive: -0.023	inactive: -0.249	inactive: 0.004	inactive: -0.003	inactive: -0.018	inactive: -0.098	inactive: 0.001	inactive: -0.079	inactive: -0.189	inactive: -0.056	inactive: -0.01	inactive: 0.001	inactive: 0.022	inactive: 0.007	inactive: -0.052		
PRKD2 (UniProt M0R346)	inactive: -0.025		inactive: 0.241		inactive: 0.109				inactive: -0.147	inactive: -0.136										
PRKX (UniProt P51817)									inactive: -0.039									inactive: 0.108		
PRG2 (UniProt P13727)		inactive: 0.036	inactive: 0.212	inactive: -0.023		inactive: 0.016	inactive: 0.091						inactive: 0.009		inactive: -0.119		inactive: 0.168	inactive: -0.018	inactive: 0.007	inactive: 0.086
PPTC7 (UniProt Q8NI37)		inactive: -0.039	inactive: 0.001		inactive: 0.008		inactive: 0.151			inactive: -0.139										
PPP2R5B (UniProt Q15173)					inactive: -0.277	inactive: -0.002			inactive: 0.006	inactive: -0.057	inactive: -0.187	inactive: 0.095	inactive: -0.047	inactive: -0.042			inactive: -0.067	inactive: -0.023		
PRELID3B (UniProt Q9Y3B1)			inactive: -0.061		inactive: 0.468					inactive: 0.049							inactive: 0.545		inactive: -0.034	

Random excerpt: two entries already listed
Target	log2 fold change [1]	log2 fold change (crizotinib)	log2 fold change [2]	log2 fold change [3]	log2 fold change (gandotinib)	log2 fold change [4]	log2 fold change (doramapimod)	log2 fold change (ispinesib)	log2 fold change (bafetinib)	log2 fold change [5]	log2 fold change (nilotinib)	log2 fold change [6]	log2 fold change (dasatinib)	log2 fold change [7]	log2 fold change [8]	log2 fold change [9]	log2 fold change (tipifarnib)	log2 fold change (mubritinib)	log2 fold change (tozasertib)	log2 fold change (duvelisib)
PRKX (UniProt P51817)									inactive: -0.039									inactive: 0.108		
PPP2R5C isoform 5 (UniProt Q13362)	inactive: -0.054	inactive: -0.071	inactive: 0.023	inactive: -0.05	inactive: -0.024	inactive: 0.069	inactive: -0.043	inactive: 0.007	inactive: -0.024	inactive: 0.005	inactive: -0.168	inactive: -0.026	inactive: -0.227	inactive: 0.026	inactive: 0.031	inactive: -0.06	inactive: -0.099	inactive: 0.042		
